# Library screening results

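Whole-cell assay for inhibitors of Mycobacterium tuberculosis growth, labelled Cornell in the record; the read-out is not stated. The concentration is filed as 10 mM, unlikely as a test dose, so the dose is not known. The record gives no direction; compounds strong in two other growth screens of this library score well above the rest, so higher reads as stronger inhibition. Size under these conditions: about 53,000 compounds, about 900 of them at 50% or above in at least one test.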

The filed quantity is “Percent Effect” (%). The controls that fix the scale are not given in the record; negative values are as filed. This is an unselected part of the compounds tested.

Cc1n[nH]c(C)c1C1CCCN1C(=O)c1cc(Br)c[nH]1 (stereo not given) gave -17.12%. c1cc(-c2noc(-c3cc(C4CC4)on3)n2)cc(N2CCCCC2)n1 gave 9.06%. For O=C(O)C(F)(F)F.O=C(O)C(F)(F)F.[H][C@]12C[C@@H](Cn3cncn3)N(c3nccs3)[C@@]1([H])CCN(C(C)C)C2 the result was -10.11%. CCn1ccc(-c2cc(NCCCOc3cccc(C)c3)nc(C)n2)n1 read 27.92%. CN(CC(F)(F)F)C(=O)CNC(=O)N1CCCC(N(C)C)C1 (stereo not given) gave 13.11%.

Result for O=C(Cn1nc(Br)nc1Br)N1CCCC1 was 8.718%. CN(C(=O)c1cc(F)ccc1F)[C@@H]1CC[C@@H](O)[C@@H]1O gave 1.637%. COc1ccc(CN2CCOC[C@H](Oc3cccnc3)C2)cc1 gave -14.76%. CN(Cc1ncc[nH]1)CC(c1cccs1)N1CCOCC1 (stereo not given) read -0.1354%. CC(C)(C)c1cnc(CN2C(=O)CC3(CCSC3)C2=O)o1 (stereo not given) read 12.06%.

Result for O=C1NCCCCC1Sc1nnc(-c2cccnc2)n1C1CC1 (stereo not given) was -56.53%. CS(=O)(=O)NCCCNC(=O)c1cccnc1O gave 29.37%. For Cc1noc(CN(Cc2ccc3c(c2)OCO3)C2CCCC2)n1 the result was 4.979%. Result for COc1ccc(SC(C)C(=O)N2CCC(NC(=O)C3CC3)CC2)cc1 (stereo not given) was -8.958%. [H][C@@]12CN(c3ccc(C)nn3)C[C@@H](C(=O)NCc3ccco3)[C@]1([H])CCO2 gave 38.68%.

With CCN(CC1=CCN(C)CC1)C(=O)CCOC the screen gave -6.441%. Result for COc1ccc(NC(=O)CCNc2ncccn2)cn1 was 28.44%. Result for CCC(C)C(=O)NCc1cc(Br)c(OC)c(OC)c1 (stereo not given) was 9.528%. For CCOCCC1(CNC(=O)c2ccsc2)CCC1 the result was 23.41%. Result for Cc1nc2ccnn2c(C)c1CCC(=O)N1CCN(CCO)CC1 was -33.27%.

Cl.O=C([C@H]1CCCO1)N1CCC2(CC1)CNCc1ccccc12 gave 7.399%. O=C(CCC1CCN(C(=O)c2csnn2)CC1)NCc1cccc(Cl)c1 gave -2.299%. CCCn1nccc1C(=O)N1CCN(C2CCc3ccccc3C2)CC1 (stereo not given) gave 28.48%. Cc1occc1C(=O)NCC(=O)NCCCOc1ccc(F)cc1 read 12.1%. Cc1nc(-c2cccnc2)ncc1C(=O)N1CCCC(N(C)C)CC1 (stereo not given) gave -4.356%.

With O=C(O)C(F)(F)F.[H][C@]12CN(c3ccccc3)C(=O)[C@@]1([H])CN(C1CCOC1)C2 (stereo not given in full) the screen gave -29.34%. For CC(=O)NCc1nnn2c1CN(c1ncc(C)cn1)CCC2 the result was -5.931%. O=C(O)C(F)(F)F.O=C(O)C(F)(F)F.[H][C@@]12CN(CCOCC)C[C@H](C(=O)Nc3cccnc3)[C@]1([H])CCO2 read -2.538%. CC(C)CCC(=O)NCc1ccc(N2CCCCC2)cc1 gave 14.16%. With CCOCC(=O)N1CCC(C2CCN(Cc3ccc(Cl)cc3)C2)CC1 (stereo not given) the screen gave 17.23%.

For Cn1ccnc1CN1CCC2(COCCN(Cc3ccsc3)C2)C1 (stereo not given) the result was 10.44%.

3 of the entries, repeated:

structure	Percent Effect
CS(=O)(=O)NCCCNC(=O)c1cccnc1O	29.37
Cc1nc(-c2cccnc2)ncc1C(=O)N1CCCC(N(C)C)CC1 (stereo not given)	-4.356
Cc1nc2ccnn2c(C)c1CCC(=O)N1CCN(CCO)CC1	-33.27

The values are deposited in ChEMBL (CHEMBL3988442, “University of Dundee, Small-Polar-MMV Screening Library” (2021)).